Data: patent US8173649B2, “Glucokinase activator” (Kyorin Pharmaceutical Co., Ltd., priority 2006, dated 2012)
Some entries share one result that the patent states for a list of compounds. For at least one compound, name, drawing or mass did not settle the structure.

Tested on: ICR mice
Experiment: Hypoglycemic activity test
Assay type: in vivo
Details: male ICR mice, 30 mg/kg orally after 2-hour fasting; mean of 0.5, 2 and 4 hours relative to Pre-value
Procedure: Using male 7- to 9-week-old ICR mice (Charles River Laboratories Japan), the effect of each test compound on the blood glucose levels was observed. Specifically, each compound was dissolved in a 60:40 mixture of Gelucire44/14 (Gatefosse) and PEG400 and was orally administered to the animals after a 2-hour fasting period (30 mg/kg, 10 mL/kg). Using a tube coated with dipotassium ethylenediamine tetraacetate, blood samples were collected from the tail vein immediately before administration (Pre-value), and 0.5, 2 and 4 hours after administration. The blood samples were centrifuged (4° C., 3,600 g, 3 min) to obtain plasma samples.
Each sample was diluted 5-fold with physiological saline and the blood glucose level was measured using glucose CII-test Wako (Wako Pure Chemical Industries). 10 μL each of one of the samples, physiological saline and a 100 mg/dL standard glucose solution (200 mg/dL standard glucose solution diluted two-fold with physiological saline) were placed in each well of a 96-well flat plate. 150 μL of a color-forming solution was added to each well and the plate was left at 37° C. for 5 min to allow the solution to develop color. Using a Lucy2 luminescence reader (Aloka), the measurements were taken at OD=492 nm. The decrease in the sigma glucose (mean decrease in the glucose levels at each blood collection point relative to the Pre-value) was determined from the decrease in the glucose level at each blood collection point relative to the Pre-value.

SMILES: CS(=O)(=O)c1ccc([C@H](CC2CC(F)C(F)C2)C(=O)Nc2nccs2)cc1 (single isomer, unassigned; (+)) [compound 2, (+)-3-[(1α,3α,4α)-3,4-difluorocyclopentyl]-2-(4-(methylsulfonyl)phenyl)-N-(thiazole-2-yl)propionamide]
- decrease in the sigma glucose level: ≤ 15%

SMILES: CS(=O)(=O)c1ccc(C(C[C@H]2C[C@@H](F)[C@@H](F)C2)C(=O)Nc2nccs2)cc1 (single isomer, unassigned; (-)) [Compound No. 1, (−)-3-[(1α,3α,4α)-3,4-difluorocyclopentyl]-2-(4-(methylsulfonyl)phenyl)-N-(thiazole-2-yl)propionamide]
- decrease in the sigma glucose level: ≥ 30%

SMILES: Cn1ccc(NC(=O)C(CC2CC(F)C(F)C2)c2ccc(S(C)(=O)=O)cc2)n1 (single isomer, unassigned; (-)) [compound 3, (−)-3-[(1α,3α,4α)-3,4-difluorocyclopentyl]-2-(4-(methylsulfonyl)phenyl)-N-(1-methylpyrazole-3-yl)propionamide]
- decrease in the sigma glucose level: ≥ 30%

SMILES: CS(=O)(=O)c1ccc(C(CC2CC(F)C(F)C2)C(=O)Nc2nccs2)cc1 (single isomer, unassigned; (-)) [compound 7, (−)-3-[(1β,3α,4α)-3,4-difluorocyclopentyl]-2-(4-(methylsulfonyl)phenyl)-N-(thiazole-2-yl)propionamide]
- decrease in the sigma glucose level: ≤ 15%
